Reference: patent US20140329868A1, “METHODS FOR TREATING HYPERTENSION” (TAKEDA PHARMACEUTICALS U.S.A., INC., priority 2005, published 2014)

Test system: oxonic acid (OA)-induced hyperuricemic model in Sprague-Dawley rats
Test: Example 4: micropuncture glomerular hemodynamics and mean arterial pressure under anesthesia in normal and OA-dosed rats
Format: in vivo
Settings: end of eight weeks, mean ± SEM
Method: Materials and Methods. To produce hyperuricemia, rats received OA (Sigma, St Louis Mo., USA) 750 mg/kg body weight daily by gastric gavage. To investigate the treatment effect of febuxostat (also referred to herein as “Fx”), the drug was administered in drinking water at 50 mg/L (approximately 5-6 mg/kg/day) four weeks after OA dosing while the respective controls received 5.84 mg/L of NaCl in drinking water (to maintain a salt concentration equivalent to the Febuxostat-containing water). […] Body weight, food and water intakes were measured daily. Systolic blood pressure, obtained in conscious rats by a tail cuff sphygmomanometer, and plasma uric acid were measured in all animals at baseline and at the end of four and eight weeks. […]
Micropuncture Procedure to Assess Glomerular Hemodynamics. […] Mean arterial pressure (hereinafter “MAP”) was monitored using a pressure transducer (Model p23 db; Gould, San Juan, PR) connected to the catheter in the femoral artery and recorded on a polygraph (Grass Instruments, Quincy, Mass., USA). […] Intratubular pressure under free-flow (hereinafter “FF”) and stop-flow (hereinafter “SFP”) conditions and peritubular capillary pressure (hereinafter “Pc”) were measured in other proximal tubules with a servo-null device (Servo Nulling Pressure System; Instrumentation for Physiology and Medicine, San Diego, Calif., USA). […]

Cc1nc(-c2ccc(OCC(C)C)c(C#N)c2)sc1C(=O)O [febuxostat, 2-[3-cyano-4-(2-methylpropoxy)phenyl]-4-methylthiazole-5-carboxylic acid]
Hct (Hematocrit) (Normal + FX rats (n = 8)): 0.48 ± 0.01% | Hct (Hematocrit) (OA + Fx rats (n = 10)): 0.46 ± 0.01%
